From PubChem BioAssay AID504467 (National Center for Advancing Translational Sciences (NCATS), 2011)
Screen size: about 330,000 compounds; about 7,700 (2.3%) were called active. The inconclusive results got no clear call from the source; some entries with a clear call stand among them for comparison. Calls come from the whole dose curve; as a rule, active = well fitted inhibition curve with a large enough effect; inconclusive = small, poorly fitted or top-dose-only effect, or effect the other way; inactive = flat fitted curve, though single readings scatter. A potency beside an inconclusive call is a rough fit, not a confirmed value.

Assay: qHTS screen for small molecules that inhibit ELG1-dependent DNA repair in human embryonic kidney (HEK293T) cells expressing luciferase-tagged ELG1; note: nearly all actives have a fitted effect of over 55% in size
Settings: HEK293T ELG1-luciferase reporter, luminescence, 16 h, DNA damage induced by 5-fluorouridine; activity change, negative = inhibition: at 46.1 µM (top of the series)
Method in brief: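 Quantitative HTS, concentration-response format. 2,000 cells/well co-treated with 5-fluorouridine and compound, 16 hr in 5% CO2 at 37 °C; ONE-Glo luminescence read after 30 min.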
% is set by controls: 0 for no effect and ±100 for the full control effect; potency is the fitted concentration of half-maximal effect.

Structure (SMILES) | Potency | activity change, negative = inhibition
CC1(C)NC(=O)N(CCCOc2ccc3c(c2)CCC3)C1=O | inconclusive: 11.2 µM [activator, partial curve, poor fit] | –
Cc1nc(NC(=O)c2cccnc2)ccc1Br | inconclusive: 14.6 µM [activator, partial curve] | –
COc1cc2c(cc1OC)CN(C(=S)Nc1ccc(OC(F)F)cc1)CC2 | inconclusive: 6.51 µM [inhibitor, single point] | –
CCCCc1nnc(NC(=O)CCSc2ccccc2)s1 | – | inactive: -0.352%
O=C(N/N=C/c1cccs1)c1c[nH]c2ccccc12 | inconclusive: 18.4 µM [activator, partial curve] | –
COc1cccc(Cn2cc(C)cc(NC(=O)NCc3ccccc3)c2=O)c1 | – | inactive: -0.0079%
COc1ccc(CN(Cc2cc3cc(C)ccc3[nH]c2=O)C(=O)N(C)C)cc1 | inconclusive: 18.4 µM [inhibitor, single point] | –
Cc1cccc(C(=O)OCC(=O)c2cccc(Br)c2)c1O | inconclusive: 18.3 µM [activator, single point] | –
CCOCc1[nH]c(=S)[nH]c(=O)c1Cc1ccc(OCC)cc1 | – | inactive: 0.817%
O=C(NCCO)C(=O)Nc1cc2c3c(c1)CCN3C(=O)CC2 | inconclusive: 16.4 µM [activator, single point] | –
Cc1nc2ccccc2c(=O)n1Cc1ccc([N+](=O)[O-])cc1 | – | inactive: 3.4%
CCOC(=O)c1cc(-c2cccc(C(F)(F)F)c2)nc2nc(SC)[nH]c(=O)c12 | inconclusive: 18.4 µM [inhibitor, partial curve] | –
COc1ccc(Cl)cc1NC(=O)CN(C)CC(=O)Nc1cc(OC)c(OC)c(OC)c1 | active: 18.3 µM | –
C=C1/C=C(\C)[C@](C)(O)C[C@H](O)CC(=O)[C@H](O)[C@@H](O)[C@H](C)C[C@H](C)OC(=O)/C(C)=C/CC/C=C/[C@@H]2O[C@H]2C[C@H](C)C1 | inconclusive: 0.058 µM [activator, full curve] | –
O=C(Cn1cnc2ccccc2c1=O)NCc1ccc2c(c1)OCO2 | – | inactive: 3.14%
CCOc1cc(/C=C2\C(=O)N(c3nc(-c4ccc(Br)cc4)cs3)N=C2c2ccccc2)ccc1O | inconclusive: 29.1 µM [activator, single point] | –
CCOc1ccc(-n2c(C)c(C(=O)O)c3cc(OC)ccc32)cc1 | inconclusive: 5.8 µM [inhibitor, full curve] | –
CCOc1ccc(NS(=O)(=O)c2cnc(Cl)c(Cl)c2)cc1 | – | inactive: -2.36%
CC(C)(C)OC(=O)C[C@@H]1C/C=C\C[C@H](CC(=O)N[C@H](CO)Cc2ccccc2)C(=O)N[C@H](C(C)(C)C)COC1=O | – | inactive: -14.1%
CNS(=O)(=O)c1cccc(C(=O)OCC(=O)NC(C)CCc2ccccc2)c1 (centres undefined) | – | inactive: -13.4%
CCN(CC)S(=O)(=O)c1cc(NC(=S)NC(=O)C2CCCC2)ccc1C | inconclusive: 23.1 µM [inhibitor, single point] | –
C=CCn1c(-c2cccc3ccccc23)n[nH]c1=S | – | inactive: 0%
CC1CCN(CCCNC(=O)Cn2ncc3c([nH]c4ccccc43)c2=O)CC1 | inconclusive: 4.11 µM [activator, full curve] | –

Look-ups from the results shown.
Value for `Cc1cccc(C(=O)OCC(=O)c2cccc(Br)c2)c1O` under Potency: inconclusive: 18.3 µM [activator, single point]
Value for `C=CCn1c(-c2cccc3ccccc23)n[nH]c1=S` under activity change, negative = inhibition: inactive: 0%
Value for `CC1(C)NC(=O)N(CCCOc2ccc3c(c2)CCC3)C1=O` under Potency: inconclusive: 11.2 µM [activator, partial curve, poor fit]

Remaining list, next part

Structure (SMILES) | Potency | activity change, negative = inhibition
CCN(c1ccccc1)S(=O)(=O)c1cc(C(=O)OC2CCOC2=O)ccc1C (centres undefined) | – | inactive: 13.1%
CCCNC(=O)c1cc(-c2ccc3c(c2)OCO3)on1 | inconclusive: 3.26 µM [activator, partial curve] | –
C=CC[C@@H](CC(=O)N[C@H](CO)Cc1ccccc1)C(=O)NC[C@H](OC(=O)[C@@H](CC=C)Cc1ccc(F)cc1)c1ccccc1 | active: 4.61 µM | –
O=C(CCl)Nc1cccc(Oc2ccccc2)c1 | – | inactive: -19%
CCn1nnc(-c2ccccc2NS(=O)(=O)c2ccc(C(=O)OC)cc2)n1 | inconclusive: 29.1 µM [inhibitor, partial curve, poor fit] | –
Cc1cc(C(=O)CN2C(=O)c3cccc(N)c3C2=O)c(C)n1Cc1cccs1 | inconclusive: 2.91 µM [activator, partial curve] | –
O=C(Cn1nnc2ccccc21)OCc1ccccc1 | – | inactive: 15%
O=C(N/N=C/c1cc(Br)cs1)C(O)c1ccccc1 (centres undefined) | inconclusive: 25.9 µM [activator, partial curve, poor fit] | –
C#CCOCCOCCOCCNc1nc(N2CCN(C(=O)[C@H]([C@@H](C)CC)n3cc(CCCN=C(N)N)nn3)CC2)nc(N2CCN(C(=O)[C@H](CCCCN)n3cc(CCCC)nn3)CC2)n1 | inconclusive: 0.58 µM [inhibitor, full curve] | –
S=c1[nH]nc(CCc2nc3ccccc3[nH]2)n1-c1cccc(Cl)c1 | – | inactive: -17.3%
Cc1ccc(S(=O)(=O)/N=C(/NNC(=O)c2cccc(Cl)c2)c2ccccc2)cc1 | inconclusive: 23.1 µM [activator, partial curve] | –
COc1ccc(-n2cc(-c3ccccc3)c3c(N4CCOCC4)ncnc32)cc1 | inconclusive: 6.51 µM [inhibitor, single point] | –
CC1(C(=O)Oc2ccccc2)Cc2ccccc2C(=O)O1 (centres undefined) | – | inactive: -3.35%
Cc1cccc(C)c1OCC(O)CN(Cc1ccccc1O)C1CCCCC1 (centres undefined) | inconclusive: 29.1 µM [inhibitor, single point] | –
Cc1ccccc1-c1nc(CN2CCC(C(=O)O)CC2)c(C)o1 | – | inactive: 7.13%
COc1ccc(C(=O)NCc2ccc(Cl)cc2)cc1S(=O)(=O)N1CCCC1 | – | inactive: -24.7%
CC(C)(C)C(=O)N1CCN(c2ccc([N+](=O)[O-])c(NCC3CCCO3)c2)CC1 (centres undefined) | inconclusive: 29.1 µM [inhibitor, single point] | –
COc1cc(NC(=O)c2cccc(COCC(F)(F)C(F)F)c2)cc(OC)c1OC | inconclusive: 25.9 µM [inhibitor, partial curve, poor fit] | –
O=C(/C=C/c1cn(-c2ccccc2)nc1-c1cccnc1)NCCN1CCOCC1 | – | inactive: 0.664%
CC(=O)c1ccc(NC(=S)NCc2ccco2)cc1 | inconclusive: 16.4 µM [activator, single point] | –
COc1ccc(S(=O)(=O)N2CCCCCC2)cc1C(=O)Nc1ccc(C(=O)N(C)C)cc1 | – | inactive: 15%
CCOc1ccc(CCNc2nc3ccccc3n3cnnc23)cc1OCC | active: 20.6 µM | –
CC1Cc2ccccc2N1C(=O)Cn1c(=O)oc2cc(S(=O)(=O)NC3CCCC3)ccc21 (centres undefined) | inconclusive: 16.4 µM [inhibitor, single point] | –

Structure (SMILES) | Potency | activity change, negative = inhibition
CCC(=O)N(CCc1ccccc1C)Cc1cc2cc3c(cc2[nH]c1=O)OCO3 | inconclusive: 29.1 µM [inhibitor, single point] | –
CC(=O)Nc1sc2c(c1-c1nc3ccccc3s1)CCN(C(C)C)C2 | inconclusive: 29.1 µM [inhibitor, single point] | –
CCC(OC(=O)c1nsc(Cl)c1Cl)C(=O)NCC1CCCO1 (centres undefined) | – | inactive: 15%
COc1cccc(-c2nc(CS(=O)(=O)CC(=O)NCCc3cc(OC)ccc3OC)c(C)o2)c1 | active: 20.6 µM | –
O=C(CCN1Cc2ccccc2C1)c1ccc2c(c1)OCCO2 | – | inactive: 1.59%
O=C(CSc1nnc(C2COc3ccccc3O2)o1)NC1CCCCC1 (centres undefined) | inconclusive: 16.4 µM [activator, single point] | –
Nn1c(CSc2ccccn2)nc2ccccc2c1=O | inconclusive: 16.4 µM [activator, partial curve] | –
CCN(CC)CCC(C)OC(=O)c1ccc(O)cc1O (centres undefined) | – | inactive: -15.4%
CCCCn1c(N)c(N(CCC(C)C)C(=O)c2cc(CC)c(C)s2)c(=O)[nH]c1=O | inconclusive: 32.6 µM [activator, partial curve, poor fit] | –
COc1ccc(NC(=O)c2cc(C)nc3ccccc23)cc1S(=O)(=O)N1CCOCC1 | – | inactive: -1.2%
Cc1c(NS(=O)(=O)c2ccc3c(c2)OCCO3)cccc1-c1nc2cccnc2s1 | inconclusive: 23.1 µM [inhibitor, partial curve] | –
Nn1c(COc2cccc(Cl)c2)nc2ccccc2c1=O | inconclusive: 18.4 µM [activator, single point] | –
O=S(=O)(Nc1ccc(N2CCCCC2)cc1)c1cccs1 | inconclusive: 16.4 µM [activator, partial curve, poor fit] | –
N#Cc1cccc(NC(=O)COC(=O)c2ccccc2Sc2ccccc2C#N)c1 | inconclusive: 18.4 µM [inhibitor, single point] | –
CCc1ccc(-c2nc(SCC(=O)c3c(N)n(C)c(=O)n(C)c3=O)n[nH]2)cc1 | inconclusive: 20.6 µM [activator, single point] | –
COc1ccc(CN2C(=O)N(c3ccc(OC)cc3)C(=O)C2CC(=O)Nc2ccccc2)cc1 (centres undefined) | – | inactive: 6.48%
O=C(COc1ccccc1)Nc1nc2ccccc2[nH]1 | inconclusive: 7.31 µM [activator, partial curve, poor fit] | –
CCOc1ccccc1OCCCC(=O)Nc1nc2ccccc2[nH]1 | inconclusive: 25.9 µM [activator, single point] | –
COc1ccc(-c2nc(-c3cccs3)c(-c3cccs3)[nH]2)cc1O | inconclusive: 13 µM [inhibitor, partial curve] | –
COc1cc(C(=O)Nc2cccc(-c3nc4ccccc4o3)c2C)cc(OC)c1OC | – | inactive: 0.734%
Cc1ccc(N2C(=O)CC3(CC4C=CC3C4)C2=O)cc1 (centres undefined) | inconclusive: 23.1 µM [activator, partial curve] | –
Nc1nc(CSc2n[nH]c(-c3ccccc3)n2)nc(Nc2ccccc2)n1 | inconclusive: 12.6 µM [inhibitor, partial curve, poor fit] | –
O=c1c2c(nc3cc(-c4ccc(F)cc4)[nH]n13)CCC2 | inconclusive: 6.51 µM [activator, partial curve] | –
